Results reported in article PMC9496542.
These are yes or no findings as the source states them, for the method shown.

Biological target: hNDRG1*C, the C-terminal intrinsically disordered region of human NDRG1 (human)
Experiment: SEC-MALS; SEC-MALS-QELS; hNDRG1*C 300 uL at 1.2 mM on Superdex 75 10/300 GL; 20 mM HEPES pH 7.5, 150 mM NaCl, 1 mM TCEP; room temperature, 0.5 mL/min; without or with Ni(II); both purified

B1: hNDRG1*C, the C-terminal intrinsically disordered region of human NDRG1 (domain or fragment)
chain: GMGYMPSASMTRLMRSRTASGSSVTSLDGTRSRSHTSEGTRSRSHTSEGTRSRSHTSEGAHLDITPNSGAAGNSAGPKSMEVSC
B1 was tested, and the binding was “no binding (tested: 1.2 mM loaded (300 uL))”.
